Results are given in words; binding and its absence hold for the method and conditions named. For part of these data: Binding seen in cells or lysates may run through a third protein. Some binding calls cover weakened binding; strength is not graded here. Each block holds one molecule with its values, some of them ahead of it.
Legend:
[1] = target: mitochondrial HSP60 (endogenous, mitochondria of AML-12 cells) (mouse (endogenous in AML-12)) (UniProt P63038); assay: co-IP; Dynabeads Protein A/G with SIRT4 or HSP60 antibody, 300 ug mitochondrial protein of AML-12 cells, overnight at 4 C; cells treated with Gln alone or in combination with LPS; blots for SIRT4, HSP60, HSP10
[2] = target: HSP60 recombinant protein (UniProt P63038); assay: ITC; Auto ITC200; 10 uM HSP60 in the cell, 100 uM SIRT4 titrated, 20 titrations of 2 uL, interval 120 s; proteins dissolved in deionized water; multi-point binding model; both purified

By UniProt entry, the sequences of proteins in these tests, tags left out. Residues count along the entry.
UniProt P63038, residues 27-573: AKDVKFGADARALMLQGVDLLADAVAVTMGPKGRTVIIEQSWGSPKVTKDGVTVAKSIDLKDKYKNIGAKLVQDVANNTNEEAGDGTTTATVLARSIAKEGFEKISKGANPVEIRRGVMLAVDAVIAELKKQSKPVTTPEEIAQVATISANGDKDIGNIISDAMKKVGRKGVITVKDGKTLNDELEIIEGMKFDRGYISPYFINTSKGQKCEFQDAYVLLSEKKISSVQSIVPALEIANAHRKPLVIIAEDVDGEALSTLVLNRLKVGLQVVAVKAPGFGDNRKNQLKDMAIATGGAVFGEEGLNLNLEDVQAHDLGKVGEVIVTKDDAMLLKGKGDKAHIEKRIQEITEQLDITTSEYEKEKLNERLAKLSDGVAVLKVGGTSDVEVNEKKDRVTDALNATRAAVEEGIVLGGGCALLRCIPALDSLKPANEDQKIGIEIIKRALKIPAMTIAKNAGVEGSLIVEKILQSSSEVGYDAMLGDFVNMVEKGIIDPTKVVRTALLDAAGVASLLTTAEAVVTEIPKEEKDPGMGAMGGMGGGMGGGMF
UniProt Q64433: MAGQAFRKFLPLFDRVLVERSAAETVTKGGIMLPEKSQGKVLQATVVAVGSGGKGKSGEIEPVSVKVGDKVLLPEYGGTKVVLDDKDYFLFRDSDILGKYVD

binding [1]: binds
Molecule: HSP10 (endogenous, mitochondria of AML-12 cells) (from UniProt Q64433 1-102)

binding [2]: binds
B1: SIRT4 recombinant protein (enzyme, UniProt Q8R216 26-333)
chain: SGLFVPPSPPLDPEKIKELQRFISLSKKLLVMTGAGISTESGIPDYRSEKVGLYARTDRRPIQHIDFVRSAPVRQRYWARNFVGWPQFSSHQPNPAHWALSNWERLGKLHWLVTQNVDALHSKAGSQRLTELHGCMHRVLCLNCGEQTARRVLQERFQALNPSWSAEAQGVAPDGDVFLTEEQVRSFQVPCCDRCGGPLKPDVVFFGDTVNPDKVDFVHRRVKEADSLLVVGSSLQVYSGYRFILTAREQKLPIAILNIGPTRSDDLACLKLDSRCGELLPLIDPRRQHSDVQRLEMNFPLSSAAQDP

binding [1]: binds
B2: SIRT4 (endogenous, mitochondria of AML-12 cells) (enzyme, UniProt Q8R216 26-333)
chain: B1 chain

From publication PMC10854458
